Data taken from the supplement of paper PMC10849652.
Some of the results follow.

Chains of the proteins cited; added tags and fusions are not shown. Lines headed by an entry give the natural chain unless they say otherwise; changes in a name come on top.
UniProt Q9Y2T2: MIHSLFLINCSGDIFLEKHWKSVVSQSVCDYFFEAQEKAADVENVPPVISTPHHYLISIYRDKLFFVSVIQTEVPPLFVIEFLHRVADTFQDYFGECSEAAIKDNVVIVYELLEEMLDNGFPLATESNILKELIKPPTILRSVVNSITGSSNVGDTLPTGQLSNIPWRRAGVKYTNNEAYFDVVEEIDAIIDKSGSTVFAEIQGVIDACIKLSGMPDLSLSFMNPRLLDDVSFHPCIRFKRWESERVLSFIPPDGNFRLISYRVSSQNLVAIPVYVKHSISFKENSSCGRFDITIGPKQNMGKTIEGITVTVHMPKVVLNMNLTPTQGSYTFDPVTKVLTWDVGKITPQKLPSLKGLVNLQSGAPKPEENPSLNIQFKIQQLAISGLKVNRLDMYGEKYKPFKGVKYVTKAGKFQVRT
UniProt Q96Q42: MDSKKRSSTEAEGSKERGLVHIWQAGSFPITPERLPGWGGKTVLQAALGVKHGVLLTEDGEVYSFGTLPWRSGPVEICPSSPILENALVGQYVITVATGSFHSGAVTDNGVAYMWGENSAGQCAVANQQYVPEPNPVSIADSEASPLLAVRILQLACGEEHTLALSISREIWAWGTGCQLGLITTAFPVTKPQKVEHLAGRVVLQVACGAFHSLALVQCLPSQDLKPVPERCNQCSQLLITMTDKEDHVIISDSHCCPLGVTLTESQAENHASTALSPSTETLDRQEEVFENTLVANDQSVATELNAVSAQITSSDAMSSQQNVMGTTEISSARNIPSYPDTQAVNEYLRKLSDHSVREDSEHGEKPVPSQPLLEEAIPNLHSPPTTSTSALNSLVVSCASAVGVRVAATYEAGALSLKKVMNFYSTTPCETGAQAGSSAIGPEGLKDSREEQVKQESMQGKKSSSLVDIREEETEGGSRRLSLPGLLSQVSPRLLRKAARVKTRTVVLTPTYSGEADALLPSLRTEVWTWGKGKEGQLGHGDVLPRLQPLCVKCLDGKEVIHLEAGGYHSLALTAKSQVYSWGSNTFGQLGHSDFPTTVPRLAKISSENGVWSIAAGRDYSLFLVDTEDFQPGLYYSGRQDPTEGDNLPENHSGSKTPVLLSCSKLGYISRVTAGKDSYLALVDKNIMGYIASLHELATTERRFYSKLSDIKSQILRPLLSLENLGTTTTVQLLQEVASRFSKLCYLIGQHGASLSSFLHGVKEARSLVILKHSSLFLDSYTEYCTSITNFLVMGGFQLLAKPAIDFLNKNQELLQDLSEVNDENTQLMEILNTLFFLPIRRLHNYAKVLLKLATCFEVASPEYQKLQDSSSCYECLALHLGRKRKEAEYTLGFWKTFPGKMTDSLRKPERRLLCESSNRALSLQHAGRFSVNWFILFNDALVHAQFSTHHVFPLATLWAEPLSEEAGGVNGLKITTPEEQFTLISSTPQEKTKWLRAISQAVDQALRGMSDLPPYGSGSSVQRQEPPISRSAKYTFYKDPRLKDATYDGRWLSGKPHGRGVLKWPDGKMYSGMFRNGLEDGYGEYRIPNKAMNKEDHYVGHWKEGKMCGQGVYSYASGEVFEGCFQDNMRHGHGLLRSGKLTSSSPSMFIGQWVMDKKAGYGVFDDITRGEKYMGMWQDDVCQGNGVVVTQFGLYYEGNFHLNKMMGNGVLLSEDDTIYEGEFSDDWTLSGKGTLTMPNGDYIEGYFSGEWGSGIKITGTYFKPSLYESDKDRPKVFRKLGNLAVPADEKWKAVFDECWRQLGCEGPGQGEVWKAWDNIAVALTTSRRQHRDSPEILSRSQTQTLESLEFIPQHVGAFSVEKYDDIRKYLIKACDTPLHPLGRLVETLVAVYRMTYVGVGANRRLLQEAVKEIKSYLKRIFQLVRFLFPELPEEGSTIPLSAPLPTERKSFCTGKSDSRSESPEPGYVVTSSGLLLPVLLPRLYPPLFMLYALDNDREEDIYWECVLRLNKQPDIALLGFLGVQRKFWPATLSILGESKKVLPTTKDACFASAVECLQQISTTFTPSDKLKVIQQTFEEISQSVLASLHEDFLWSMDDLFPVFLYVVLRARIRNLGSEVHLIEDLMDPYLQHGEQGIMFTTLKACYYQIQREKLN
UniProt Q6ZTN6: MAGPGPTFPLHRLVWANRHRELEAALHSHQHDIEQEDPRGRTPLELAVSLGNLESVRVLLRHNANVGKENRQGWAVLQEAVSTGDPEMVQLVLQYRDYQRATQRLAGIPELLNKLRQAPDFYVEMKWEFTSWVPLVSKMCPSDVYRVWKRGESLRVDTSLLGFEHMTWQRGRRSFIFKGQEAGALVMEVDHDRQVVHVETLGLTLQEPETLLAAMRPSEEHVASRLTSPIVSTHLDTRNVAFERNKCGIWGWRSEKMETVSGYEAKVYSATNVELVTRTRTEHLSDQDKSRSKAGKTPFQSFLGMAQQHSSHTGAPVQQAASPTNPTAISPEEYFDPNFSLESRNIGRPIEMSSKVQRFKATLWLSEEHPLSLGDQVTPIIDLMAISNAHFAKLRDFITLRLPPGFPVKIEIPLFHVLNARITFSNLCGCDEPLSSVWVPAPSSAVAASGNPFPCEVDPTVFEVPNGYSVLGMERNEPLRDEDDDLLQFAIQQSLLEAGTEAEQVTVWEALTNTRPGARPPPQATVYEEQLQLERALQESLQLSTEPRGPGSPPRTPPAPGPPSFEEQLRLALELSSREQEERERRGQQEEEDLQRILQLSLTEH
UniProt Q9BTT0: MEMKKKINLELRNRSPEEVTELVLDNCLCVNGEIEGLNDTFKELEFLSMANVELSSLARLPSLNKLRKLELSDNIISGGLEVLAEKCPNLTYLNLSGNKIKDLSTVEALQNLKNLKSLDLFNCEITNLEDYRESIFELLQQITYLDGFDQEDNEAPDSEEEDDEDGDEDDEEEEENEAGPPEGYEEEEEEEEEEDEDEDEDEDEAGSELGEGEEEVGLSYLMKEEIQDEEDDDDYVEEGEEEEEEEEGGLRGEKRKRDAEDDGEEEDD
UniProt P53680: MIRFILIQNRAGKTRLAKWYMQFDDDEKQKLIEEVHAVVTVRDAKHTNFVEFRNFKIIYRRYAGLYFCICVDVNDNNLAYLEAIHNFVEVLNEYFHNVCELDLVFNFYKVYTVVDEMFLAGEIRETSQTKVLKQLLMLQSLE
UniProt P56377: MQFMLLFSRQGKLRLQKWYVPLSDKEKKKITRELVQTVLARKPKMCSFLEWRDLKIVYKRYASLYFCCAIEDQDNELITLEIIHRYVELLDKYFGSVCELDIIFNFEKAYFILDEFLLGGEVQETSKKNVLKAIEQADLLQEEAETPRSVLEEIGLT
UniProt Q9NW15: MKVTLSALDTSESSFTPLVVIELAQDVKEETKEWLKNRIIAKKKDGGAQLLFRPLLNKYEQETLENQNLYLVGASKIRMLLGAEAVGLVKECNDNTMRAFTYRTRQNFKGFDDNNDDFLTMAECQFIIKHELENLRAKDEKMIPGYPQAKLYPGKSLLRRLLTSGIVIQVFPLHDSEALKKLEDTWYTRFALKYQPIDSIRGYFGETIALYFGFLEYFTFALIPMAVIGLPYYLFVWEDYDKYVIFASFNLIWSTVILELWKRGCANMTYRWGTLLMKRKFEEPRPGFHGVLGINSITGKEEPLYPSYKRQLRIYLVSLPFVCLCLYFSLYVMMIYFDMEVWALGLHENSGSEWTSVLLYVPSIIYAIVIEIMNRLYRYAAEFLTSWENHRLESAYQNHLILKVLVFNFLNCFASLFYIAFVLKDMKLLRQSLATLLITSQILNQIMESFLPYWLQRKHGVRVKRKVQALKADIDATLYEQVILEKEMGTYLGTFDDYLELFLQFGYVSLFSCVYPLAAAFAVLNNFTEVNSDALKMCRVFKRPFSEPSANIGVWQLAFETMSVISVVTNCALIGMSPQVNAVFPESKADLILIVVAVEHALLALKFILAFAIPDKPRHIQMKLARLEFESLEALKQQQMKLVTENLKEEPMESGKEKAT
UniProt Q8IWZ3: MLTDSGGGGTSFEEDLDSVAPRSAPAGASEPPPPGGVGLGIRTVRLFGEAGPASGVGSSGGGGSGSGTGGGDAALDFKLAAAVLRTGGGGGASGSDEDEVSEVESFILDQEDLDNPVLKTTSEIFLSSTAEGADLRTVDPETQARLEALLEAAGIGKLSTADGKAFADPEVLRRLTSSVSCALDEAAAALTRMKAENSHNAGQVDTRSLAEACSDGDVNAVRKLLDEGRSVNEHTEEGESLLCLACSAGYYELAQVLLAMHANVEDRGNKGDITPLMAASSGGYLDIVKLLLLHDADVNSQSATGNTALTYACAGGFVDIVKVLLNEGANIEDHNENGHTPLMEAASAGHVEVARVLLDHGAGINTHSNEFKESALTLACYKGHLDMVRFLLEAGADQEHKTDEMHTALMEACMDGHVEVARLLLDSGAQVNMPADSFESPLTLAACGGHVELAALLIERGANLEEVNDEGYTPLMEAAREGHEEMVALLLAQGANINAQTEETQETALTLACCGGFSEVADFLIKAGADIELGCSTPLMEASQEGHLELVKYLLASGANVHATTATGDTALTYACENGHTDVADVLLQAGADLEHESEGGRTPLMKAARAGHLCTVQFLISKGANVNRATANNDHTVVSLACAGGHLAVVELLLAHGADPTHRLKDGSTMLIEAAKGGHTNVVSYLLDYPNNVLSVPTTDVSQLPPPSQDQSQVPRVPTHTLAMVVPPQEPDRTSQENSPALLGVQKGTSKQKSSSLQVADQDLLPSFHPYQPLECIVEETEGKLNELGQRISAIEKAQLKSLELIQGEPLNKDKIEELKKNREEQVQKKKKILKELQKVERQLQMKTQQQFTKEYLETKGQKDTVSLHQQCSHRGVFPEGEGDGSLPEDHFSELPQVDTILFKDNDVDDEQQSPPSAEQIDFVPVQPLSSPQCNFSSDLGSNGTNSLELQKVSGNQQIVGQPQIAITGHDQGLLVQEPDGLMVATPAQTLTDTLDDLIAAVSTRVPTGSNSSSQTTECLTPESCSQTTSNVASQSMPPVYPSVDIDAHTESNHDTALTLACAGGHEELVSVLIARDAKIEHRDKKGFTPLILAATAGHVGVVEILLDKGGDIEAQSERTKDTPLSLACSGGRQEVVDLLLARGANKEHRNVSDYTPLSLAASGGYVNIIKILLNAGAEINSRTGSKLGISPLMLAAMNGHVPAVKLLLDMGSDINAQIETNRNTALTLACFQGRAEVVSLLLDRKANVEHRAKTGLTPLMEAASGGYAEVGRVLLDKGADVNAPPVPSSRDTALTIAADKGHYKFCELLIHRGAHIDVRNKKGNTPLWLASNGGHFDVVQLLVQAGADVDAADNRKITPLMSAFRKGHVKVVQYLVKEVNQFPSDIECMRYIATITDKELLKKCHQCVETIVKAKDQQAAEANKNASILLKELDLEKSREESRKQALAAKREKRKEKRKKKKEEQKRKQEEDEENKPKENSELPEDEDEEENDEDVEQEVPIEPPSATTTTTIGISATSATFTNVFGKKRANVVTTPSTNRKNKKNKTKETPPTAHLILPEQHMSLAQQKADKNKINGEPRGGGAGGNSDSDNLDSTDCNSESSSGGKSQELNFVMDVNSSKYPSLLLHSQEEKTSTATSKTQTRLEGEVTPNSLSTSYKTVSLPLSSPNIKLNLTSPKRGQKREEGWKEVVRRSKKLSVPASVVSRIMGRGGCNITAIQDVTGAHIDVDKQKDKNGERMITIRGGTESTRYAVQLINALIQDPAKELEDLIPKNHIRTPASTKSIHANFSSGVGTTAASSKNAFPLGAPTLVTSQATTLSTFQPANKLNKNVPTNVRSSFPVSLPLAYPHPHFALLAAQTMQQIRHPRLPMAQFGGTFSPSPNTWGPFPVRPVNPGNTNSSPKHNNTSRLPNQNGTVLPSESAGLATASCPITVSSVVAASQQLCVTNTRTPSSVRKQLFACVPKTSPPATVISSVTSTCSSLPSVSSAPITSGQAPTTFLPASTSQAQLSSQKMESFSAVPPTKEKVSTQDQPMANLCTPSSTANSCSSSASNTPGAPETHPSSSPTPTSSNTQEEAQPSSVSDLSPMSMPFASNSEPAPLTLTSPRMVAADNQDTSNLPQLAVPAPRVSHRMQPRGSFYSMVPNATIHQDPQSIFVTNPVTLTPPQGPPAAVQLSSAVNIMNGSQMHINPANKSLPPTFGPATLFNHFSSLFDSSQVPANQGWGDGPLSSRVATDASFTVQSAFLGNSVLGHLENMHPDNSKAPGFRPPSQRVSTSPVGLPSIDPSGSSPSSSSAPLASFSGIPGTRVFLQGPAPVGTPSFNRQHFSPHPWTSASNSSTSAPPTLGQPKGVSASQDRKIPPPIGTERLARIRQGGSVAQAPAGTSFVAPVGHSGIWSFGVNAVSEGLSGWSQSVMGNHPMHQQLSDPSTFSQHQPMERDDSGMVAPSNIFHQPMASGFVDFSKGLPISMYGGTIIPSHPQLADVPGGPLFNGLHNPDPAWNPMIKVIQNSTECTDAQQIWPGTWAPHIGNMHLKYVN

Compound: NC1(c2ccc(-c3nc4ccn5c(=O)[nH]nc5c4cc3-c3ccccc3)cc2)CCC1
Experiment: log2 fold change, soluble protein after heating vs DMSO (PISA); higher = thermal stabilisation; K562 lysate, 10 uM; active = over 0.2 and 3.5 SD of the protein, either way, in both replicates (recomputed)
Procedure, shortened: (§1)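 Dounce homogenisation of K562 pellets in PBS pH 7.4 with 1 mM MgCl2 produced a crude extract, used at 1 mg/mL protein. Exposure to 10 μM compound lasted 30 min, and aliquots were then heated for 3 min across 48°C-58°C, pooled and brought to 0.5% NP-40 at 4°C. The supernatant after 21,000xg for 90 min was quantified by TMTpro 16plex LC-MS/MS with channel sums equalised. Duplicate values are given as log-two fold change in thermal stability relative to solvent controls.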

Target | log2 fold change
ALDH4A1 (UniProt P30038) | inactive: 0.028
ALG8 (UniProt Q9BVK2) | inactive: -0.006
AP3M1 (UniProt Q9Y2T2) | inactive: 0.006
ALS2 (UniProt Q96Q42) | inactive: 0.078
ANXA7 (UniProt P20073) | inactive: -0.008
ALKBH2 (UniProt Q6NS38) | inactive: -0.012
ANKRD13D isoform 3 (UniProt Q6ZTN6) | inactive: -0.019
AMD1 (UniProt P17707) | inactive: -0.022
AKT1S1 isoform 3 (UniProt Q96B36) | inactive: 0.019
ANO6 (UniProt Q4KMQ2) | inactive: -0.013
ANAPC2 (UniProt Q9UJX6) | inactive: 0.006
ANP32E (UniProt Q9BTT0) | inactive: 0.023
ANKRD49 (UniProt Q8WVL7) | inactive: 0.032
AP2S1 (UniProt P53680) | inactive: -0.008
ANXA2 isoform 2 (UniProt P07355) | inactive: 0.022
ANKRD28 (UniProt O15084) | inactive: -0.031
ALDH16A1 (UniProt Q8IZ83) | inactive: 0.006

Target | log2 fold change
ANKMY2 (UniProt Q8IV38) | inactive: 0.003
AP1G1 isoform 2 (UniProt O43747) | inactive: -0.012
ANKRD52 (UniProt Q8NB46) | inactive: -0.028
ALDH2 (UniProt P05091) | inactive: -0.003
ANK3 (UniProt Q12955) | inactive: -0.011
AP1S2 isoform 2 (UniProt P56377) | inactive: 0.094
ANXA6 (UniProt P08133) | inactive: 0.041
ALAD (UniProt P13716) | inactive: 0.013
AKT2 (UniProt P31751) | active: 0.559
ANKS1A (UniProt Q92625) | inactive: -0.019
ANO10 (UniProt Q9NW15) | inactive: 0
ANKRD29 (UniProt Q8N6D5) | inactive: -0.086
ALKBH8 isoform 4 (UniProt Q96BT7) | inactive: -0.088
ALDH1A2 (UniProt O94788) | inactive: 0.024
ANKHD1 isoform 6 (UniProt Q8IWZ3) | inactive: -0.014
ALDOA (UniProt P04075) | inactive: 0.009
AP2M1 (UniProt Q96CW1) | inactive: -0.003

Compound: NCC(=O)Nc1ccc(-n2nc(C(F)(F)F)cc2-c2ccc3c(ccc4ccccc43)c2)cc1
Experiment: as above
Procedure, shortened: as §1

Target | log2 fold change
ALDH4A1 (UniProt P30038) | inactive: -0.103
ALG8 (UniProt Q9BVK2) | inactive: -0.022
AP3M1 (UniProt Q9Y2T2) | inactive: -0.007
ALS2 (UniProt Q96Q42) | inactive: 0.035
ANXA7 (UniProt P20073) | inactive: 0.013
ALKBH2 (UniProt Q6NS38) | inactive: 0.068
ANKRD13D isoform 3 (UniProt Q6ZTN6) | inactive: -0.072
AMD1 (UniProt P17707) | inactive: 0.071
AKT1S1 isoform 3 (UniProt Q96B36) | inactive: 0.046
ANO6 (UniProt Q4KMQ2) | inactive: -0.009
ANAPC2 (UniProt Q9UJX6) | inactive: 0.023
ANP32E (UniProt Q9BTT0) | inactive: 0.021
ANKRD49 (UniProt Q8WVL7) | inactive: -0.015
AP2S1 (UniProt P53680) | inactive: 0.012
ANXA2 isoform 2 (UniProt P07355) | inactive: -0.015
ANKRD28 (UniProt O15084) | inactive: -0.014
ALDH16A1 (UniProt Q8IZ83) | inactive: -0.013

Target | log2 fold change
ANKMY2 (UniProt Q8IV38) | inactive: -0.064
AP1G1 isoform 2 (UniProt O43747) | inactive: -0.019
ANKRD52 (UniProt Q8NB46) | inactive: -0.043
ALDH2 (UniProt P05091) | inactive: -0.068
ANK3 (UniProt Q12955) | inactive: -0.007
AP1S2 isoform 2 (UniProt P56377) | inactive: -0.04
ANXA6 (UniProt P08133) | inactive: 0.014
ALAD (UniProt P13716) | inactive: 0.037
AKT2 (UniProt P31751) | inactive: -0.021
ANKS1A (UniProt Q92625) | inactive: -0.023
ANO10 (UniProt Q9NW15) | inactive: -0.037
ANKRD29 (UniProt Q8N6D5) | inactive: 0.261
ALKBH8 isoform 4 (UniProt Q96BT7) | inactive: -0.043
ALDH1A2 (UniProt O94788) | inactive: -0.008
ANKHD1 isoform 6 (UniProt Q8IWZ3) | inactive: -0.009
ALDOA (UniProt P04075) | inactive: 0.012
AP2M1 (UniProt Q96CW1) | inactive: 0.011
